{"source": "PubChem BioAssay AID1259254, NCATS – 2017", "test": "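Gene knock-downs that lead to re-replication, shown by excess G2 DNA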 (primary screen)", "cells": "human HCT116 colorectal cancer cells", "knock-down reagent": "single siRNA against human genes", "time to read-out": "3 days", "detection": "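Imaged Hoechst DNA stain sorts each cell into a cycle phase by DNA amount; per plate, G2 fraction set to 0% for non-targeting and 100% for GMNN siRNA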", "direction": "G2 robust z-score and G2 cells, % of GMNN control: higher = more G2 cells, more excess DNA replication", "call rule": "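An siRNA counts as active if its G2 robust z-score lies at least 5 MADs above the screen median; here such calls match roughly 38% of GMNN control or more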", "note": "Shown is an unselected part of about 59,000 reagents. About 1,550 of all reagents (2.6%) count as active. 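G2 share is only a proxy for re-replication; each gene was hit by three separate siRNAs, and active genes were retested.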 Unmarked entries are inactive. The numbers tell different reagents against one gene apart. Further read-outs or replicates are left out here. The record does not give: the amount of reagent."}
{"gene symbol":"AP4S1","siRNA no.":1,"G2 robust z-score":-0.94,"G2 cells, % of GMNN control":-3.65}
{"gene symbol":"AP4S1","siRNA no.":2,"G2 robust z-score":-0.167,"G2 cells, % of GMNN control":1.79}
{"gene symbol":"AP4S1","siRNA no.":3,"G2 robust z-score":1.49,"G2 cells, % of GMNN control":13.5}
{"gene symbol":"SAR1AP3","siRNA no.":1,"G2 robust z-score":-0.263,"G2 cells, % of GMNN control":1.11}
{"gene symbol":"SAR1AP3","siRNA no.":2,"G2 robust z-score":-0.208,"G2 cells, % of GMNN control":1.5}
{"gene symbol":"SAR1AP3","siRNA no.":3,"G2 robust z-score":0.048,"G2 cells, % of GMNN control":3.31}
{"gene symbol":"SETX","siRNA no.":1,"G2 robust z-score":-0.199,"G2 cells, % of GMNN control":1.57}
{"gene symbol":"SETX","siRNA no.":2,"G2 robust z-score":0.0929,"G2 cells, % of GMNN control":3.62}
{"gene symbol":"SETX","siRNA no.":3,"G2 robust z-score":-0.144,"G2 cells, % of GMNN control":1.95}
{"gene symbol":"BRCA2","siRNA no.":1,"G2 robust z-score":0.221,"G2 cells, % of GMNN control":4.52}
{"gene symbol":"BRCA2","siRNA no.":2,"G2 robust z-score":0.869,"G2 cells, % of GMNN control":9.08}
{"gene symbol":"BRCA2","siRNA no.":3,"G2 robust z-score":2.38,"G2 cells, % of GMNN control":19.7}
{"gene symbol":"OR11H12","siRNA no.":1,"G2 robust z-score":0.811,"G2 cells, % of GMNN control":8.67}
{"gene symbol":"OR11H12","siRNA no.":2,"G2 robust z-score":-0.711,"G2 cells, % of GMNN control":-2.04}
{"gene symbol":"OR11H12","siRNA no.":3,"G2 robust z-score":-0.14,"G2 cells, % of GMNN control":1.98}

Look-ups from above.
SAR1AP3 #1, G2 robust z-score = -0.263
Under “G2 cells, % of GMNN control”, SETX #2 has 3.62
Under “G2 robust z-score”, AP4S1 #2 reads -0.167

Next results follow:
{"gene symbol":"PCDHA10","siRNA no.":1,"G2 robust z-score":2.36,"G2 cells, % of GMNN control":19.6}
{"gene symbol":"PCDHA10","siRNA no.":2,"G2 robust z-score":-0.872,"G2 cells, % of GMNN control":-3.17}
{"gene symbol":"PCDHA10","siRNA no.":3,"G2 robust z-score":1.52,"G2 cells, % of GMNN control":13.7}
{"gene symbol":"HP1BP3","siRNA no.":1,"G2 robust z-score":0.979,"G2 cells, % of GMNN control":9.86}
{"gene symbol":"HP1BP3","siRNA no.":2,"G2 robust z-score":0.275,"G2 cells, % of GMNN control":4.9}
{"gene symbol":"HP1BP3","siRNA no.":3,"G2 robust z-score":-0.787,"G2 cells, % of GMNN control":-2.57}
{"gene symbol":"RPL23AP14","siRNA no.":1,"G2 robust z-score":1.05,"G2 cells, % of GMNN control":10.4}
{"gene symbol":"RPL23AP14","siRNA no.":2,"G2 robust z-score":-0.115,"G2 cells, % of GMNN control":2.16}
{"gene symbol":"RPL23AP14","siRNA no.":3,"G2 robust z-score":1.26,"G2 cells, % of GMNN control":11.9}
